Reference: PubChem BioAssay AID1224826 (NIAID, 2016)
Aim: 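Regulators of Tlr4 signalling leading to Tnf-alpha expression in macrophages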 (primary screen). System: RAW264.7 G9 macrophages from mouse bearing reporters for p65 (GFP) and the Tnf promoter (mCherry). Reagents: siRNA pool against mouse genes, 100 nM. Time to read-out: 16 h of LPS stimulation, after 2 days of siRNA transfection. Treatment: bacterial lipopolysaccharide (Salmonella minnesota R595), 10 ng/ml. Measurement: 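Nuclear mCherry signal of the Tnf promoter reporter measured by imaging after background removal, scaled to each plate median and turned into robust z-scores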. Scale: Tnf reporter robust z-score: higher = stronger Tnf promoter reporter signal after LPS; Tnf reporter intensity: higher = stronger Tnf promoter reporter signal. Rule for the call: 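a well counts as active at a score of -1.3 or below (Tlr4 knock-down control median) or above 3 (raised signal); controls and wells holding fewer than 50 cells are excluded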. Calls: active = Tnf reporter clearly lowered or raised; inactive = no clear change in Tnf reporter.
Here is one part, drawn at random, of about 17,000 deposited reagents. Of all reagents, about 1,110 (6.6%) are marked active. 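Active means lowered or raised reporter signal; replicate intensities are raw and not normalised per plate.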 The numbers tell different reagents against one gene apart. Some reagents were tested in more than one well and are listed for each. Not all columns of the deposit are shown.

no.	gene knocked down	pool no.	Tnf reporter robust z-score	fewer than 50 cells in well	Tnf reporter intensity, replicate 1	call
1	Jrkl (GeneID 77532)	1	0.6	enough cells in well	159	inactive
2	Phex (GeneID 18675)	1	0.37	enough cells in well	268	inactive
3	Gsto2 (GeneID 68214)	1	0.61	enough cells in well	189	inactive
4	Sufu (GeneID 24069)	1	-1.72	enough cells in well	154	active
5	Or5ac19 (GeneID 258996)	1	-1.33	enough cells in well	107	active
6	Bche (GeneID 12038)	1	-0.36	enough cells in well	128	inactive
7	Chchd10 (GeneID 103172)	1		fewer than 50 cells per well; well left out of calls	183	inactive
8	Stk36 (GeneID 269209)	1	-0.56	enough cells in well	167	inactive
9	Stk36 (GeneID 269209)	1		fewer than 50 cells per well; well left out of calls	149	inactive
10	Igfbp4 (GeneID 16010)	1	0.85	enough cells in well	291	inactive
11	Or5a3 (GeneID 258678)	1	0.35	enough cells in well	271	inactive
12	Impact (GeneID 16210)	1	-0.67	enough cells in well	182	inactive
13	Sec61a1 (GeneID 53421)	1		fewer than 50 cells per well; well left out of calls	63	inactive
14	Mttp (GeneID 17777)	1	0.12	enough cells in well	308	inactive
15	Gm5148 (GeneID 381438)	1	-0.36	enough cells in well	169	inactive
16	Or6k8 (GeneID 258715)	1	-1.13	enough cells in well	68.4	inactive
17	Scn10a (GeneID 20264)	1	-0.09	enough cells in well	310	inactive
18	Gna13 (GeneID 14674)	1	-0.83	enough cells in well	145	inactive
19	Slc22a1 (GeneID 20517)	1		fewer than 50 cells per well; well left out of calls	68.3	inactive
20	Ipo4 (GeneID 75751)	1	-1.74	enough cells in well	98	active
21	Psmd5 (GeneID 66998)	1	-0.6	enough cells in well	224	inactive
22	Mcmdc2 (GeneID 240697)	1	0.62	enough cells in well	185	inactive
23	Amigo2 (GeneID 105827)	1	-0.35	enough cells in well	187	inactive
24	Cdca7l (GeneID 217946)	1	1.64	enough cells in well	295	inactive
25	Zfp60 (GeneID 22718)	1	-0.14	enough cells in well	116	inactive
26	Zfp60 (GeneID 22718)	2	0.61	enough cells in well	162	inactive
27	Map3k13 (GeneID 71751)	1	-1.19	enough cells in well	126	inactive
28	Mrgprx1 (GeneID 404242)	1	-0.8	enough cells in well	190	inactive
29	Mrgprx1 (GeneID 404242)	1	-1.23	enough cells in well	131	inactive

Entries above called active:
gene knocked down	pool no.	Tnf reporter robust z-score	fewer than 50 cells in well	Tnf reporter intensity, replicate 1	call
Sufu (GeneID 24069)	1	-1.72	enough cells in well	154	active
Or5ac19 (GeneID 258996)	1	-1.33	enough cells in well	107	active
Ipo4 (GeneID 75751)	1	-1.74	enough cells in well	98	active

More reagents:
no.	gene knocked down	pool no.	Tnf reporter robust z-score	fewer than 50 cells in well	Tnf reporter intensity, replicate 1	call
30	Or2z8 (GeneID 404315)	1	-1.87	enough cells in well	73.1	active
31	Or10al6 (GeneID 258285)	1	-1.17	enough cells in well	110	inactive
32	Stx17 (GeneID 67727)	1	-0.87	enough cells in well	144	inactive
33	Cdkn2c (GeneID 12580)	1	0.92	enough cells in well	192	inactive
34	Terb1 (GeneID 320022)	1	-0.27	enough cells in well	138	inactive
35	Galr2 (GeneID 14428)	1	0.09	enough cells in well	209	inactive
36	Cdkn2a (GeneID 12578)	1	2.1	enough cells in well	283	inactive
37	St6galnac1 (GeneID 20445)	1		fewer than 50 cells per well; well left out of calls	92.6	inactive
38	Tbpl1 (GeneID 237336)	1	-0.79	enough cells in well	190	inactive
39	Pdhx (GeneID 27402)	1	0.02	enough cells in well	276	inactive
40	Tbx20 (GeneID 57246)	1	0.28	enough cells in well	128	inactive
41	Htr1b (GeneID 15551)	1	-0.14	enough cells in well	208	inactive
42	Pstk (GeneID 214580)	1	-0.93	enough cells in well	145	inactive
43	Rabif (GeneID 98710)	1	1.32	enough cells in well	305	inactive
44	Mcfd2 (GeneID 193813)	1	1.71	enough cells in well	340	inactive
45	Tram1 (GeneID 72265)	1	1.04	enough cells in well	344	inactive
46	Wfikkn2 (GeneID 278507)	1	-0.76	enough cells in well	107	inactive
47	9430077A04Rik (GeneID 320321)	1	-0.26	enough cells in well	176	inactive
48	Psca (GeneID 72373)	1	-0.14	enough cells in well	135	inactive
49	Or8c15 (GeneID 258333)	1	1.5	enough cells in well	161	inactive
50	Ppcdc (GeneID 66812)	1	-1.15	enough cells in well	103	inactive
51	Zdhhc24 (GeneID 70605)	1		fewer than 50 cells per well; well left out of calls	146	inactive
52	Eri1 (GeneID 67276)	1	2.14	enough cells in well	216	inactive
53	Usp7 (GeneID 252870)	1	-0.09	enough cells in well	228	inactive
54	A830054O04Rik (GeneID 320491)	1	-0.83	enough cells in well	125	inactive
55	Uqcrc2 (GeneID 67003)	1	0.49	enough cells in well	276	inactive
56	Rrs1 (GeneID 59014)	1	-0.56	enough cells in well	128	inactive
57	Rnf222 (GeneID 320040)	1	-0.05	enough cells in well	190	inactive
58	Cert1 (GeneID 68018)	1	1.69	enough cells in well	369	inactive
